Data: PubChem BioAssay AID651640 (Broad Institute, 2012)
The campaign covered roughly 350,000 compounds. About 6,000 (1.7%) were called active. Inconclusive results, whose numbers are uncertain, are shown with a selection of clear calls. No stated cut-off is given here; in the data, active means CPE inhibition above about 20% (passing the limit was not always enough); inconclusive means no clear call, values can overlap the other calls; tested in BHK-21 cells.

Assay: protection of cells from dengue 2 killing – plate reader, single concentration, primary screen (AID 651640);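 further: 0% = median of neutral control wells and 100% = median of positive control wells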
Details: DENV2-infected cells, cytopathic effect rescue, at 9.99 µM, hits give high values

Compound | CPE inhibition
Nc1nc2ncccc2cc1C(=O)NCCc1cccs1 | inconclusive: 64.5%
Cc1ccc(SC[C@H](Cc2ccccc2)N2CC[C@@H](C)CCC2=O)cc1 | active: 94.3%
NC1=CC(=O)C(=O)c2ccccc21 | inactive: 13.2%
COc1ccc(S(=O)(=O)Nc2ccc3c(c2)C(=O)N([C@@H](C)CO)C[C@H](C)[C@@H](CN(C)C(=O)CCC(F)(F)F)OCCCC[C@H](C)O3)cc1 | inconclusive: 55.6%
CCC(C)(C)C1CCc2[nH]nc(C(=O)N/N=C(\C)c3ccco3)c2C1 (centres undefined) | inconclusive: 45.3%
Cn1c(=O)oc2cc(S(=O)(=O)N3CCC(C(=O)NCc4cccs4)CC3)ccc21 | inconclusive: 55.4%
COc1ccc(C#Cc2cnc3c(c2)C(=O)N([C@H](C)CO)C[C@H](C)[C@H](CN(C)C(=O)CC2CC2)O3)cc1 | inconclusive: 20.5%
C[C@H](CO)N1C[C@H](C)[C@@H](CN(C)C(=O)Nc2cccc3ccccc23)Oc2ccc(NS(=O)(=O)c3cn(C)cn3)cc2C1=O | inactive: -2.88%
CCOc1ccccc1OCC(=O)Nc1nc2ccccc2[nH]1 | inconclusive: 22.4%
O=C(Nc1ncc(S(=O)(=O)c2ccc([N+](=O)[O-])cc2)s1)c1ccccc1F | inactive: 8.34%
O=C(Nc1ccc(F)cc1)N[C@@H]1C=C[C@@H](CC(=O)N2CCOCC2)O[C@@H]1CO | inconclusive: 34.7%
COc1ccc(S(=O)(=O)Nc2ccc3c(c2)C(=O)N([C@H](C)CO)C[C@H](C)[C@@H](CN(C)C(=O)NC2CCCCC2)O3)cc1 | inconclusive: 28.2%
CCOC(=O)C1=CCN(S(=O)(=O)c2ccc(F)cc2)C1c1cccc(Cl)c1 (centres undefined) | active: 83.7%
Cn1ccc(C(=O)Nc2ccc3c(c2)OCCO3)n1 | inconclusive: 33.7%
CC(C)NC(=O)N(C)C[C@H]1Oc2c(NC(=O)c3nc4ccccc4s3)cccc2C(=O)N([C@H](C)CO)C[C@@H]1C | inconclusive: 36.1%
CO[C@@H]1CN(C)C(=O)c2ccc(NC(=O)C3CCC3)cc2OC[C@H](C)N(Cc2nccs2)C[C@H]1C | active: 26.6%
C[C@@H]1CN([C@H](C)CO)C(=O)Cc2cc(NS(C)(=O)=O)ccc2O[C@@H]1CN(C)C(=O)Nc1ccc2c(c1)OCO2 | inconclusive: 59.4%
CO[C@@H]1CN(C)C(=O)c2cc(NS(=O)(=O)c3ccccc3)ccc2OC[C@@H](C)N(Cc2nccs2)C[C@H]1C | inactive: -8.42%
CCCC#Cc1ccc([C@H]2[C@@H](C#N)N(C(=O)C3CCOCC3)[C@H]2CO)cc1 | inconclusive: 23.4%
CCS(=O)(=O)Nc1ccc2c(c1)C(=O)N(C)[C@H]1CC[C@H](CC(=O)NC)O[C@H]1CO2 | inactive: 0.0135%
CCS(=O)(=O)N1CCCCN2[C@H](C1)[C@@H](c1ccc(C#Cc3ccccn3)cc1)[C@@H]2CO | inconclusive: 30.4%
O=C(Nc1ccc(F)cc1)N1CC(=O)N2[C@H](CO)[C@H](c3ccc(C#CC4CC4)cc3)[C@H]2C1 | active: 34.6%

An excerpt taken from the entries so far, for reference:
Compound | CPE inhibition
COc1ccc(S(=O)(=O)Nc2ccc3c(c2)C(=O)N([C@@H](C)CO)C[C@H](C)[C@@H](CN(C)C(=O)CCC(F)(F)F)OCCCC[C@H](C)O3)cc1 | inconclusive: 55.6%
CCC(C)(C)C1CCc2[nH]nc(C(=O)N/N=C(\C)c3ccco3)c2C1 (centres undefined) | inconclusive: 45.3%

(list continues)

Compound | CPE inhibition
O=C(NC1CCCC1)C1c2ccccc2OCC(=O)N1CC(F)(F)F (centres undefined) | inconclusive: 101%
Cc1ccc(-n2ncc3c(=O)[nH]c(SCC(=O)N4CCCC4)nc32)cc1C | active: 63.1%
Cc1cccc(CN2CCN(C(=O)c3cccc4ccccc34)CC2)c1 | active: 42.7%
CC(=O)c1cc2c(cc1NC(=O)Cn1nc(-c3ccc(F)cc3)ccc1=O)OCO2 | inconclusive: 21.9%
CC(C)CC#Cc1cnc2c(c1)C(=O)N([C@@H](C)CO)C[C@H](C)[C@@H](CN(C)C(=O)c1ccc(F)cc1)O2 | inactive: -4.54%
C[C@@H]1CCCCO[C@H](CN(C)S(C)(=O)=O)[C@H](C)CN([C@@H](C)CO)C(=O)c2cc(NC(=O)c3ccncc3)ccc2O1 | inactive: -2.09%
CCOC(=O)c1n[nH]n(-c2cc(Cl)cc(Cl)c2)c1=O | inconclusive: 24.1%
CC1(C)O[C@@H]2[C@H](O1)[C@@H](COS(=O)(=O)O)O[C@H]2n1cc(Br)c(=O)[nH]c1=O | inconclusive: 20.9%
C[C@H]1CN([C@@H](C)CO)C(=O)Cc2cc(NC(=O)CCN3CCOCC3)ccc2O[C@H]1CN(C)CC1CCCCC1 | inactive: -0.997%
C[C@@H]1CCCCO[C@H](CN(C)C(=O)NC2CCCCC2)[C@@H](C)CN([C@@H](C)CO)C(=O)c2cc(NC(=O)NC3CCCCC3)ccc2O1 | active: 46.8%
CC/C=C/C(=O)N1CC2(CC(c3cccc(NC(=O)CC(c4ccccc4)c4ccccc4)c3)=NO2)C[C@@H]1C(N)=O (some centres undefined) | inconclusive: 40.5%
Cn1c(-c2sc3cc(C(F)(F)F)cnc3c2-c2ccccn2)n[nH]c1=S | inactive: -2.81%
Cc1ccc(S(=O)(=O)N(C)C[C@H]2OCCCC[C@H](C)Oc3ccc(NC(=O)Nc4ccc(F)cc4)cc3C(=O)N([C@@H](C)CO)C[C@@H]2C)cc1 | inconclusive: 38.3%
CC(=O)N1CC2(C1)[C@H](c1ccc(-c3ccc(C#N)cc3)cc1)[C@H](CO)N2C(C)=O | inactive: -5.57%
COc1ccc(CNC(=O)C2CC(c3ccc(C(F)(F)F)cc3)=NO2)cc1 (centres undefined) | active: 87.8%
COc1ccc(-c2nc3c(C)cc(Br)cn3c2Cc2cccc(F)c2)cc1OC | active: 89.3%
CO[C@H]1CN(C)C(=O)c2cc(NC(=O)c3ccccc3)ccc2OC[C@@H](C)NC[C@@H]1C | inconclusive: 38.1%
C=CCNC(=O)[C@H]1[C@@H]2C(=O)O[C@@H](c3ccccc3)[C@@H](c3ccccc3)N2[C@@H](c2ccc(O)cc2)[C@]12C(=O)Nc1ccc(C#Cc3ccc(OC)cc3)cc12 | inactive: 12.4%
Cc1nc(NC(=O)COC(=O)c2cccs2)c(Cl)cc1Cl | inconclusive: 43.4%
Cc1cc(C)cc(N(CC(=O)NCc2ccco2)S(=O)(=O)c2c(C)noc2C)c1 | active: 41%
CNC[C@H]1OCCCC[C@@H](C)Oc2ccc(NS(=O)(=O)c3ccc(Cl)cc3)cc2C(=O)N([C@H](C)CO)C[C@H]1C | inconclusive: 30.6%
O=S(=O)(c1ccccc1)N1C[C@H]2[C@@H](c3ccccc31)[C@@H](CO)N2Cc1ccccc1 | active: 27.3%
